In PMC9883498 one finds binding data, which are given here for 2 molecules.

Chains of the proteins cited; added tags and fusions are not shown.
UniProt Q15717: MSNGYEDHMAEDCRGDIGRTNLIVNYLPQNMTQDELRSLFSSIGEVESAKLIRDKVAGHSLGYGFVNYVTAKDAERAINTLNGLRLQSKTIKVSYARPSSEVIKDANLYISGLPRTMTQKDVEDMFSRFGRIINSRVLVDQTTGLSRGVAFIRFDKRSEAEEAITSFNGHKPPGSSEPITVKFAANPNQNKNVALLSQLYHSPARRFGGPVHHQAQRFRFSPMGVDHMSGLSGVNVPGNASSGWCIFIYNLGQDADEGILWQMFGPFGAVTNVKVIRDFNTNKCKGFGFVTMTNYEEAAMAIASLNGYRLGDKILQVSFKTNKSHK
UniProt P51149: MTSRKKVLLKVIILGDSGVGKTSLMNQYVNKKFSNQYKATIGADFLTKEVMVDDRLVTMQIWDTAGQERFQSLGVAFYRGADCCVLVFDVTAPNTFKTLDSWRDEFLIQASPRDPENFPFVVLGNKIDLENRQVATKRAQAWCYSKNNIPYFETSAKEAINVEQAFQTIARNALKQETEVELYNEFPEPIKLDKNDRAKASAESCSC

Results are given in words; binding and its absence hold for the method and conditions named. Binding seen in cells or lysates may run through a third protein. Some entries that bind do so weakly or less than the wild type.

The target of test [1] is HuR (human (endogenous in MCF7)) (UniProt Q15717). The test can be described thus: co-IP; HuR antibody (normal IgG as control) on protein G sepharose beads, cell lysate in NT2 buffer, 4 °C overnight; cells unexposed or exposed to UVC (10 J/m^2), collected 2 h post exposure; immunoblot of immunoprecipitates. For orientation: In western blotting, separated proteins are transferred to a membrane and probed.

For test [2] the target is unchanged. Description: co-IP; HuR antibody (normal IgG as control), immunoprecipitation from cell supernatant (extracellular medium); cells unexposed or exposed to UVC, collected 2 h post exposure; immunoblot of immunoprecipitates.

As to Rab7 (from UniProt P51149 1-207), the binding entry in test [1] and in test [2] was “binds” each time.

B1: flotillin 1 (protein, UniProt O75955 1-427)
chain: MFFTCGPNEAMVVSGFCRSPPVMVAGGRVFVLPCIQQIQRISLNTLTLNVKSEKVYTRHGVPISVTGIAQVKIQGQNKEMLAAACQMFLGKTEAEIAHIALETLEGHQRAIMAHMTVEEIYKDRQKFSEQVFKVASSDLVNMGISVVSYTLKDIHDDQDYLHSLGKARTAQVQKDARIGEAEAKRDAGIREAKAKQEKVSAQYLSEIEMAKAQRDYELKKAAYDIEVNTRRAQADLAYQLQVAKTKQQIEEQRVQVQVVERAQQVAVQEQEIARREKELEARVRKPAEAERYKLERLAEAEKSQLIMQAEAEAASVRMRGEAEAFAIGARARAEAEQMAKKAEAFQLYQEAAQLDMLLEKLPQVAEEISGPLTSANKITLVSSGSGTMGAAKVTGEVLDILTRLPESVERLTGVSISQVNHKPLRTA
For B1, the binding entry in test [1] and in test [2] was “binds” each time.
